Assay results taken from US5652097A, “In vitro test to evaluate the inhibition potency of angiotensin II antagonists on angiotensinogen” (priority 1994, dated 1997).

System: expression of pOGH (ANG N-1498/+18) in Hep G-TW7 cells stimulated by AII
Assay: Inhibition of AII-stimulated expression of pOGH (ANG N-1498/+18) in Hep G-TW7 cells, IR-hGH by RIA
Assay type: cell-based
Settings: Homo sapiens, 24 h, read-out: effective dose for the inhibition of the AII-stimulated expression of pOGH (ANG N-1498/+18)
Protocol: Hep G-TW7 cells were plated at a density of 1-2×10^5 cells/well in a. 6-well plate and incubated overnight in DMEM containing 1% depleted FBS (dFBS). Then cell growth was arrested by incubation in serum-free medium for 24 hours. Subsequently, various concentrations (10^-9 to 10^-5 mol/L) of Lorsatan™, Saralasin™ and CGP 42112A™ were added to the culture medium containing 1% dFBS in the presence of 10^-9 mol/L AII and incubated for 24 hours. At the end of the incubation period, media were collected and kept at -20° C. until assay.
Cells were incubated for up to 24 hours in the presence of AII (10-9mol/L) and various concentrations of Lorsatan™ (10^-9 to 10^-5 mol/L) or Saralasin™ (10^-9 to 10^-5 mol/L) or CGP 42112A™ (10^-9 to 10^-5 mol/L). Media harvested and assayed for the level of IR-hGH.
Hep G-TW7 cells were plated at a density of 1-2×10^5 cells/well in a 6-well plate and incubated overnight in DMEM containing 1% dFBS. Then cells growth was arrested by incubation in serum-free medium for 24 hours. […] At the end of the incubation period, media were collected and kept at -20° C. until assay.
Media were harvested and assayed for the level of IR-hGH.
The radioimmunoassay kit for hGH (RIA-hGH) was a gift from NIADDK, NIH, USA. […] NIAMDD-hGH-1 (AFP-4793 B) was used for both iodination and as a hormone standard.

`CN[C@@H]1C[C@H]2O[C@@](C)([C@@H]1OC)n1c3ccccc3c3c4c(c5c6ccccc6n2c5c31)C(=O)NC4` [Staurosporine] gave a minimal effective concentration of 1e-07 µM.
